In article PMC7819943, “Rice protein-binding microarrays: a tool to detect cis-acting elements near promoter regions in rice”:
The other results are listed elsewhere or left out.

Amino acid sequences for entries named in this document (tags omitted).
UniProt Q0JBA9, entry or part of it: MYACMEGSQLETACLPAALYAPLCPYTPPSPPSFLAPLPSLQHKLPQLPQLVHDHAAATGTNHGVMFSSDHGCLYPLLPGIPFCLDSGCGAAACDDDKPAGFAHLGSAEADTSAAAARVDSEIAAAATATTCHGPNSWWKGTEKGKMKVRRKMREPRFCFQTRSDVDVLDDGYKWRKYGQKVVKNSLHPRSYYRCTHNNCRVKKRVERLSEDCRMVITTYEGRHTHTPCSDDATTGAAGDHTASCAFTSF

Molecular target: OsWRKY34 (Oryza sativa, UniProt Q0JBA9 1-250)
Assay: protein-binding microarray (RPBM); PBS, 2% BSA, 51.3 ng/ul salmon testes DNA, 50 uM zinc acetate, 200 nM TF, 25 C, 1 h; high values mean tight binding
Settings: protein: recombinant; tags: N-terminal polyhistidine and DsRed monomer fusion (pET32a); label: CyDye5-dUTP incorporated in the synthesized complementary strand; 3' TTTTT single-stranded linker to array surface; dsDNA, one strand shown
Method in brief: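 Transcription factors, each fused N-terminally to a polyhistidine tag and DsRed, were expressed in E. coli BL21-CodonPlus and purified on Ni–NTA. A custom Agilent array was made double-stranded by primer extension with Cy5-dUTP and blocked with 2% BSA. It was incubated with 200 nM protein in PBS, 2% BSA, salmon testes DNA and 50 µM zinc acetate at 25 °C for 1 h, then washed. The binding signal is per-feature fluorescence intensity (arbitrary units) read on an Axon 4000B scanner.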

First: CGGTGGGTCCCACGCGTCAGCGACCGTGGGTAGGGTGGGCCGGAGTCACCTAGTGCAG
Second: CTTTTGCCCCTGCTGCCTCTGCACACTGCACGCTCCCTTCCGGAGTCACCTAGTGCAG
The binding signal of the first is higher: 9180 fluorescence intensity (a.u.) for the first, 8170 fluorescence intensity (a.u.) for the second.

Compared with “GGGGCGCCGCGGGGTGGTGCTGTTGTCGGTAGGGAGGGAGCGGAGTCACCTAGTGCAG”, “CTTCCCTCTCGCGTCTCCTCCTCTCCTCTCCTCGCTTCTTCGGAGTCACCTAGTGCAG” is lower in binding signal: 12900 fluorescence intensity (a.u.) for the first, 8090 fluorescence intensity (a.u.) for the second.

Compared with “TATGGCGGGAGGAGGGAGGTGGATGTAAATATATATATATCGGAGTCACCTAGTGCAG”, “GGTTTTGCTAGCTCCTGCCCCGCTGCATCTGTTAAATGTTCGGAGTCACCTAGTGCAG” is lower in binding signal: 13200 fluorescence intensity (a.u.) for the first, 11000 fluorescence intensity (a.u.) for the second.

First: ATATGGAGAGCACCTTATTTTATTATTGCGAGTGCTCTAACGGAGTCACCTAGTGCAG
Second: ATTCTTCTTGCAGGTAACAAGCCTGCCGCCAGGCCTGGGTCGGAGTCACCTAGTGCAG
The binding signal of the first is higher: 10000 fluorescence intensity (a.u.) for the first, 9030 fluorescence intensity (a.u.) for the second.

Compared with “TACTTGCACTCAGATCGTCGGCGTCTGAATTCTTCTGTTCCGGAGTCACCTAGTGCAG”, “ATAGGTTGATCATAATTGTGGGAGATTTCCCCGCCGTTGACGGAGTCACCTAGTGCAG” is lower in binding signal: 10100 fluorescence intensity (a.u.) for the first, 8120 fluorescence intensity (a.u.) for the second.

First: CCATCTCTCTCTCTCTCTCTCTCTCTCCCGTGCTGCTCTCCGGAGTCACCTAGTGCAG
Second: CCATTTTTTTACTCGATCGATCAGCTACTCATCCACTATACGGAGTCACCTAGTGCAG
The binding signal of the first is lower: 10400 fluorescence intensity (a.u.) for the first, 11600 fluorescence intensity (a.u.) for the second.

Going from “GCTCCACCTTGCCGCGATCCGTCGCAATTCTTTGATTCCCCGGAGTCACCTAGTGCAG” to “TTCTTGTTCCTTTTGCCTAGGTTTTGTCCAAGTACAACAGCGGAGTCACCTAGTGCAG”, the binding signal falls from 10400 fluorescence intensity (a.u.) to 10100 fluorescence intensity (a.u.).

Compared with “CCGCCACTCCTCCCTGCCGCGCGTCGCCGCTTGTTGCGTACGGAGTCACCTAGTGCAG”, “AATGTGACGAAACCAGCGCTTTGAAGCCTACTTCCTTTTCCGGAGTCACCTAGTGCAG” is higher in binding signal: 9050 fluorescence intensity (a.u.) for the first, 9590 fluorescence intensity (a.u.) for the second.

Compared with “GTTCAAAATATTGCATTTTCAAGTCTAACCGTTTCAAGCTCGGAGTCACCTAGTGCAG”, “CCGATAAATATGTTTGTTAACCGTTCCACCAAAGAGTATCCGGAGTCACCTAGTGCAG” is lower in binding signal: 9440 fluorescence intensity (a.u.) for the first, 8400 fluorescence intensity (a.u.) for the second.

First: ATTATGTACTTCCCTAATATTCGTGTTTTGATTCAAACTACGGAGTCACCTAGTGCAG
Second: AATACTCATTCTCCTGTCTCGCCTTAAAACTGATTGATCACGGAGTCACCTAGTGCAG
The binding signal of the first is lower: 8190 fluorescence intensity (a.u.) for the first, 8920 fluorescence intensity (a.u.) for the second.

Going from “TGCACTGTTCTTTTCTTCCAGTAGTCACATAATCCTTGCACGGAGTCACCTAGTGCAG” to “TTCTTCCAGCCCCACGCGCCTCATTTCTTCCGCCTGACCTCGGAGTCACCTAGTGCAG”, the binding signal rises from 8850 fluorescence intensity (a.u.) to 9830 fluorescence intensity (a.u.).

Going from “CTACTACACTATAATTAAGTACACGGTTGATTTTTTTTTCCGGAGTCACCTAGTGCAG” to “TTTGTTTCTTCTTTCGCTTTTTTTTTTAGCATTTAACTATCGGAGTCACCTAGTGCAG”, the binding signal rises from 9020 fluorescence intensity (a.u.) to 9400 fluorescence intensity (a.u.).

Going from “CAAGCGAGTAGTAGTAGTATAATCTGTTTTTTGCTTTTTTCGGAGTCACCTAGTGCAG” to “TTGATCTGCCGGCATGGTACTGCGTGAGAGGGGCGACGAACGGAGTCACCTAGTGCAG”, the binding signal rises from 9060 fluorescence intensity (a.u.) to 9250 fluorescence intensity (a.u.).

Compared with “CAAATCAGTCCATTCTCACATCACCACTCACCAACCCGAACGGAGTCACCTAGTGCAG”, “ATTGGTGGTAATCGGAGGTGGAGGTGGGCGTGATGATCTCCGGAGTCACCTAGTGCAG” is lower in binding signal: 11800 fluorescence intensity (a.u.) for the first, 11100 fluorescence intensity (a.u.) for the second.

Compared with “GGTGACACTTGTGCTATTAAACTGAAGCCTTTTTTTTTCTCGGAGTCACCTAGTGCAG”, “CGAGGCTGGGGAGGGGAGGAGAAAGGCGGGGACGGCGCGGCGGAGTCACCTAGTGCAG” is higher in binding signal: 8460 fluorescence intensity (a.u.) for the first, 12600 fluorescence intensity (a.u.) for the second.

Compared with “CCGGCAAAAGTCTCTCCATCTTGTCATCGTCTTCTCCAGCCGGAGTCACCTAGTGCAG”, “CGTTCTTGCTGTACATTTTTCGGCTTTAAAATATTTCGTTCGGAGTCACCTAGTGCAG” is higher in binding signal: 8410 fluorescence intensity (a.u.) for the first, 10400 fluorescence intensity (a.u.) for the second.

Compared with “TCAACTCCACACTCCGGCGCCGCACCCATCTCGTCCAGTCCGGAGTCACCTAGTGCAG”, “TTGCGCTTCGTCGACAGTTTCGCGGCCACGTTGTCCAAGGCGGAGTCACCTAGTGCAG” is lower in binding signal: 9370 fluorescence intensity (a.u.) for the first, 8410 fluorescence intensity (a.u.) for the second.

First: TTCTTTTTATATTTTCTTTTGTTGGTTTTTTTCGTCTCAACGGAGTCACCTAGTGCAG
Second: TTCAGTATTCCTAGTGTTGTTAACTATAAGTTACTGACATCGGAGTCACCTAGTGCAG
The binding signal of the first is higher: 13200 fluorescence intensity (a.u.) for the first, 8390 fluorescence intensity (a.u.) for the second.

Going from “TTCCATTATACCACTGGTTCGGCTAAATCGCCGGCAACCACGGAGTCACCTAGTGCAG” to “GATATTCTAGTTACCACTTAATTAGCAGCCCTGATATTTGCGGAGTCACCTAGTGCAG”, the binding signal falls from 10500 fluorescence intensity (a.u.) to 8670 fluorescence intensity (a.u.).

Compared with “TAAGAGTTATTCATGATTTATATTTCCAATGTTTGACTTACGGAGTCACCTAGTGCAG”, “TGTATTGGGTTGGGCTAAATTGAGTGACTTAGGAATTACGCGGAGTCACCTAGTGCAG” is higher in binding signal: 8210 fluorescence intensity (a.u.) for the first, 9910 fluorescence intensity (a.u.) for the second.

Compared with “ATGGTGGCTGAAGGGGTTGGATTGGATGAGGTGACATATACGGAGTCACCTAGTGCAG”, “ATCTTCACAACCGTCGGCATCCAATCTTTATTCCTTACTTCGGAGTCACCTAGTGCAG” is lower in binding signal: 13200 fluorescence intensity (a.u.) for the first, 8320 fluorescence intensity (a.u.) for the second.
